In PMC11216564:
No constants are given. Whether binding was seen depends on the method and setting.

Protein sequences, listed by entry. Tags and fused reporters are not part of them. Residues count along the entry.
UniProt P41746, residues 19-159: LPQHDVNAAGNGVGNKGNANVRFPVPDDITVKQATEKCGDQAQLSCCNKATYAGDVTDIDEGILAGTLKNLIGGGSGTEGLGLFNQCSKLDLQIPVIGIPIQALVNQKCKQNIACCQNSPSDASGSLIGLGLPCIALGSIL
UniProt P13591, residues 20-718: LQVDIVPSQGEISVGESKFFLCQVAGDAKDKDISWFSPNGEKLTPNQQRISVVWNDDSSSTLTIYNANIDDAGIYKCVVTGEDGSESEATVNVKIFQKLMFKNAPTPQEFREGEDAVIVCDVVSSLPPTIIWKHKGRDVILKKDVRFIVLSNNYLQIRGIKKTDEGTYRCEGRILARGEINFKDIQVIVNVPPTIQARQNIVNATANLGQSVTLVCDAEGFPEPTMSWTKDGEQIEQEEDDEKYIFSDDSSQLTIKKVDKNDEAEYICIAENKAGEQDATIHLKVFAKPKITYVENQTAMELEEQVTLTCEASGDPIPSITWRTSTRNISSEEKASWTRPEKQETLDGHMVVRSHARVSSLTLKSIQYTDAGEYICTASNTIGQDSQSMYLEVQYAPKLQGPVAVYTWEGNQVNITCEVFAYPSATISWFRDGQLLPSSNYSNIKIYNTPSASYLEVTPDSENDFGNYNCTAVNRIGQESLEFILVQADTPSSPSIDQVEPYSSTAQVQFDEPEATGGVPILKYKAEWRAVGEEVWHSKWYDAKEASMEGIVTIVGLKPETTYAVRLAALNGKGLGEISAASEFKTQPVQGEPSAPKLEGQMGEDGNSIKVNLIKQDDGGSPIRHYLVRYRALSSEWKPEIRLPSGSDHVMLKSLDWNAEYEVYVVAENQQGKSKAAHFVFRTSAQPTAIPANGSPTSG

Target: RodA protein (surface rodlet protein/hydrophobin) (Aspergillus fumigatus) (UniProt P41746)
Experiment: ELISA; fungal cell-wall components coated on 96-well microtiter plates (10 ug/well stated for polysaccharides) overnight at RT; blocked with PBS + 1% BSA; recombinant CD56 0.1 mg/mL in PBS + 1% BSA, RT, 1 h; detected with anti-CD56 antibody and peroxidase-conjugated anti-mouse IgG, OD 492 nm; both …

## recombinant CD56 protein (from UniProt P13591 20-718) (receptor)
  binding: no binding (tested: 0.1 mg/mL)
